Data published in article PMC12062478, “Screening herbal and natural product libraries to aid discovery of novel allosteric modulators of human P2X7” (Purinergic Signalling, 2024).

Target: T1, P2X7 (Homo sapiens, UniProt Q99572)
T1 construct: expressed in transfected cells
T1 sequence (Q99572 1-595): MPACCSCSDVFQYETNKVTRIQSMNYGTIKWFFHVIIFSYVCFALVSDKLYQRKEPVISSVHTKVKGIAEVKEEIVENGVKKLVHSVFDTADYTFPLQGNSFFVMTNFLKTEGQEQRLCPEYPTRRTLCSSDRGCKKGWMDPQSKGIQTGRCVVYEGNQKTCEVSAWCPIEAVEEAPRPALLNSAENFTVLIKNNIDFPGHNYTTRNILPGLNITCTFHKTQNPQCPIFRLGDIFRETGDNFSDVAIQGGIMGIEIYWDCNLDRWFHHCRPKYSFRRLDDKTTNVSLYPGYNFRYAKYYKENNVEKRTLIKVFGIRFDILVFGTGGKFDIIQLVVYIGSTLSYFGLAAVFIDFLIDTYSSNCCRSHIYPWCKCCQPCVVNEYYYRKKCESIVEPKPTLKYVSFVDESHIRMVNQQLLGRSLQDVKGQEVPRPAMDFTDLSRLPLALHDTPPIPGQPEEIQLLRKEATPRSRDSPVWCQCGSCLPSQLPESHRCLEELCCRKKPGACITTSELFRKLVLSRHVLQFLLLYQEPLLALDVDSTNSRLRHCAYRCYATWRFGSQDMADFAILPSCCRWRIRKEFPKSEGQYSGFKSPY
Assay: ATP-induced YO-PRO-1 dye uptake in HEK-hP2X7 cells
Type: cell-based
Conditions: screen for potential negative allosteric modulators; compound 10 µM injected 60 s before ATP
Procedure: HEK-hP2X7 or HEK-hP2X4 cells were plated at 2.5 × 10^4 cells per well (100 µL volume) the day before experiments into poly-D-lysine (Merck Millipore) coated 96-well plates (NUNC, Fisher Scientific #167-008). The membrane impermeant dye YO-PRO-1 iodide (Life Technologies, Fisher Scientific) was used at a final concentration of 2 µM in low divalent buffer (145 mM NaCl, 5 mM KCl, 0.2 mM CaCl2, 13 mM glucose, 10 mM HEPES, pH 7.3, osm 300–310). Media were removed from the plate, and 90 µL of YO-PRO-1 buffer was added per well. Plates were warmed to 37 °C for 5 min before recording. Data was acquired on a Flexstation 3 plate reader (Molecular Devices) using excitation wavelength 490 nm, emission wavelength 520 nm, and six reads per well (PMT medium). […] […] Pipette height was set to 80 µL and the rate of injection was 4.
YO-PRO-1 dye uptake assay data is plotted as a percentage of control where control responses are measured in the absence of plant extract. Cell viability data is plotted as a percentage of control or background-corrected fluorescence data. Concentration–response graphs were plotted using GraphPad Prism v6 with a non-linear regression fit (variable slope). […] Statistical differences were determined by one-way ANOVA statistical tests performed using GraphPad Prism v6 with Dunnett’s multiple comparison post hoc test. […]

COc1c(O)cc2c(c1OC)-c1ccc(OC)c(=O)cc1[C@@H](NC(C)=O)CC2 [3-desmethylcolchicine]
P2X7 response (% of control): 49.33 % of control
